# Primary screen of a compound library

Amino acid sequences for entries named in this document (tags omitted).
UniProt E9BF75, entry or part of it: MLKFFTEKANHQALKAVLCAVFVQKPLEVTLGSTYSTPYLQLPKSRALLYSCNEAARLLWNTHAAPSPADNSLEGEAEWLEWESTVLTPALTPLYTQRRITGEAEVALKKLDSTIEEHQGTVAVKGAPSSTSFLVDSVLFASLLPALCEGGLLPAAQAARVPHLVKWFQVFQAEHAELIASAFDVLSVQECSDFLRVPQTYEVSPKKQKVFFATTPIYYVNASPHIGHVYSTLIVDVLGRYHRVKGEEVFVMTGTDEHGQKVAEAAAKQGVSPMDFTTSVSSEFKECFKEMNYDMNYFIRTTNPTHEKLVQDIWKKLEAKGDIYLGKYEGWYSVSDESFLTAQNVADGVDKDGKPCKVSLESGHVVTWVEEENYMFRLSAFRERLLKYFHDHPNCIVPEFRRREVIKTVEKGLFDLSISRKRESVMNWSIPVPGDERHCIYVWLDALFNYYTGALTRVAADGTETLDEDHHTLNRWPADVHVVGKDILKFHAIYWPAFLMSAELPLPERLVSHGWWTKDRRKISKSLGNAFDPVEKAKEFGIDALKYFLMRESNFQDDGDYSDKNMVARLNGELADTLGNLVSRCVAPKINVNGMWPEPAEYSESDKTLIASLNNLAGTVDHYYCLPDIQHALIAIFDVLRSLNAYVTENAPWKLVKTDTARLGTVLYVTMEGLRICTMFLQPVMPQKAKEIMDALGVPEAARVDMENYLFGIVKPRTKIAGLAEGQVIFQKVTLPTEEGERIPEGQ

The values are deposited in ChEMBL (CHEMBL3988442, “University of Dundee, Small-Polar-MMV Screening Library” (2021)).

A: 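Methionyl-tRNA synthetase (putative), Leishmania donovani (UniProt E9BF75). Primary screen of methionyl-tRNA synthetase; the read-out is not stated. The test concentration is not given. The values are filed as inhibition. Size under these conditions: about 68,000 compounds, about 24 of them at 50% or above in at least one test.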
B: 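Assay on Mycobacterium tuberculosis, filed only as a heat shock assay from Cornell; the read-out is not stated. The concentration is filed as 10 mM, unlikely as a test dose, so the dose is not known. Higher reads as stronger inhibition (inferred: compounds with an IC50 in retests scored well above the rest). Of about 69,000 compounds tested this way, about 930 (1.4%) reached 50% or more in at least one test.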

Results are percentages, as filed. The record does not define 0% and 100%; most values in the screen are far below 50% and negative numbers occur (in some assays of this library far below -100). Compounds were drawn at random from those tested, without regard to their results. A dash means the value is not listed here; it may have been measured.

structure | A | B
CCCc1cc(C(=O)N2Cc3cnc(C(C)(C)C)nc3C2)ccn1 | 20.57% | -3.953%
O=C(O)COc1ccc(Cl)cc1CN1CCC2(CCNCC2)CC1 | 6.516% | -5.647%
Cc1ccc(-c2cnnc(NCC3CCOCC3)n2)o1 | 9.712% | -7.593%
CC(C)C1CN(C(=O)c2cc(=O)[nH]c(=O)[nH]2)CCC(=O)N1CC1CC1 (stereo not shown) | 8.906% | -15.91%
C=C(C)CN1CCC(Nc2nc(C)ns2)CC1 | 14.29% | -21.36%
[H][C@]12CN(Cc3ccc(F)cc3)C[C@@]1([H])OCCN(S(C)(=O)=O)C2 | - | -18.3%
Cc1nc(CN2C(=O)COC3(CCN(Cc4ccco4)CC3)C2C)cs1.O=C(O)C(F)(F)F (stereo not shown) | - | -28.91%
CN1[C@H](Cn2cncn2)C[C@@H]2CN(Cc3ccsc3)CC[C@@H]21 | 8.964% | -
Cc1cccc(CN2CCN3C[C@H](Oc4cncnc4)C[C@H]3C2)n1 | 19.22% | -
Cc1ccsc1C(=O)NCCCn1nc2ccccn2c1=O | 15.56% | 2.617%
Cc1nnc(N2C[C@@H](Oc3ccccn3)[C@H]3OCCC[C@H]32)s1 | 6.015% | -
O=C(Nc1cccc(Cn2cccn2)c1)N1CCCC(N2CCCC2)C1 (stereo not shown) | 11.11% | -21.77%
COCCN1C(=O)CCC12CCN(C(=O)CC1CC1)CC2 | -1.684% | -29.2%
CNCCN1C(=O)CC[C@H]2CN(c3ncc(F)cn3)CC[C@H]21 | 12.15% | -
CC(C)C(C)N(C(=O)Cn1nc2n(c1=O)CCCCC2)C1CC1 (stereo not shown) | 19.52% | 9.521%
CCSc1ccc(C(=O)N2CC[C@](O)(CC)[C@H](O)C2)s1 | 7.572% | 4.279%
CN(C)CCNC(=O)c1cnc2c(c1)nc(-c1ccccc1Cl)n2C | 14.5% | 1.161%
[H][C@]12CC[C@]([H])(CN(Cc3cscn3)C1)N(C(=O)c1nc(C)c[nH]1)C2 | - | 2.551%
Cn1ncc(C(=O)O)c1C(=O)Nc1nc2ccccc2s1 | 0.3003% | -25.16%
C[C@@H]1CC[C@@H](C)N1C(=O)c1cc(COc2ccccc2)[nH]n1 | 12.79% | -9.431%
COc1ccc(-c2cnc(CN(CC(N)=O)C3CCCC3)o2)cc1 | 12.57% | -19.32%
CCn1c(SCC(=O)N2CCCC2)nc2cc(C)[nH]c2c1=O | -6.997% | -18.19%
Cc1sc2c(C3CCCN(C(C)C)C3)nc(C)n2c1C (stereo not shown) | 10.93% | -21.07%
Cn1nc2c(cc1=O)CN(CCCOc1ccc(C#N)cc1)CC2 | 16.62% | -8.441%
O=C(O)CC1COCCN1Cc1ccccc1OCCc1ccccc1 (stereo not shown) | 6.316% | 21.57%
CC(=O)N1CCC2(CC1)CN(C(=O)c1cccnc1)c1ccc(F)cc12 | 8.211% | -
c1ccc(Cc2nnc(CN3CCCCC3Cn3cncn3)o2)cc1 (stereo not shown) | 11.67% | -4.08%
Cc1ccc(C(=O)N2CC[C@@]3(O)CCCC[C@H]3C2)cc1 | 3.333% | -
Cc1nc(-c2ccco2)ccc1C(=O)NCCCN1CCOCC1 | 16.77% | 6.825%
O=C(O)C(F)(F)F.O=C(O)C(F)(F)F.[H][C@@]12C[C@@H](Oc3cncnc3)CN1CCN(Cc1ccccn1)C2 | - | 15.14%
O=c1c(-c2ccnc(N3CCCC[C@@H]3CO)n2)cnc2sccn12 | 16.26% | -1.826%
Cl.Cl.Cn1ccc(CN2CCOCC23CCNCC3)n1 | - | -10.73%
Cc1nc(C2CCN(CC(=O)NC3CC3)CC2)cc(N2CCOCC2)n1 | 13.74% | 24.86%
O=c1[nH]cnc2[nH]c(N3CCCCC3)nc12 | 16.32% | 2.933%
CC1(C)[C@H](Cc2cc(CN3CCCCC3)on2)C[C@@H]1NC(=O)C1CC1 | 8.795% | -16.68%
[H][C@@]12CC[C@H](Oc3ccccc3Cl)[C@]1([H])CN(C(=O)COCCOC)C2 | - | -15.99%
CCN1CCC2(CC1)CC(NCc1cccs1)c1ccccc1O2.O=C(O)C(F)(F)F.O=C(O)C(F)(F)F (stereo not shown) | - | -24.55%
COCc1ccc(CNCc2c(C)nn(C)c2N(C)C)cc1 | 8.896% | -14.72%
O=C(O)CSc1nccc(-c2ccc3c(c2)OCO3)n1 | 20.12% | 18.93%
CCN(CC(=O)Nc1cc(Cl)ccc1C)C(=O)c1ccc(=O)[nH]n1 | 12.53% | -2.853%
CC(C)(C)OC(=O)NCCC(=O)N(CCC#N)Cc1ccco1 | 6.529% | 6.025%
CN(C)C(=O)C1CCc2nnc(CNC(=O)c3ccc(Cl)cc3Cl)n21 (stereo not shown) | 5.714% | -26.07%
O=S(=O)(N[C@@H]1CCO[C@]2(CCN(CC3CCOCC3)C2)C1)C1CC1 | 8.741% | -
N#Cc1cccc(S(=O)(=O)N2CC(CC(=O)O)c3ccccc32)c1 (stereo not shown) | 14.29% | 4.841%
CCN(C(=O)c1nc2c(s1)CCCN2C)C(C)C | 14.29% | 15.75%
O=C(c1ccc[nH]1)N1CCCC2(CCCN2Cc2cccnc2)C1 (stereo not shown) | 5.109% | -14.6%
CCc1nnc2n1CCN(C(=O)c1csc(-c3cnn(C)c3)n1)C2 | 13.27% | 10.27%
CCOCc1ccccc1NC(=O)NC1CCN(C2CCCC2)C1 (stereo not shown) | 6.923% | -25.34%
CC(C)NC(=O)NC[C@H]1OC[C@@H](NCc2ccc(S(C)(=O)=O)cc2)[C@@H]1O | 10.1% | -12.51%
CC(C)C(C(=O)NCC1CC1)n1cnc2cc(F)c(F)cc21 (stereo not shown) | 13.09% | 4.128%
Cc1nc2sccn2c1C(=O)N1CCn2nc(C(=O)NC3CC3)cc2C1 | 17.1% | 10.24%
Cc1ccc(-c2cc(C(=O)NCCN3CCOCC3)n[nH]2)s1 | 9.926% | 15.89%
O=C(c1cnccn1)N1CCCC2(CCN(Cc3ccc(F)cc3)C2)C1 (stereo not shown) | 11.64% | -
O=C(O)C(F)(F)F.O=C(O)C(F)(F)F.[H][C@]12C[C@@H](CN3CCCC3)N(C)[C@@]1([H])CCN(C(=O)Cc1ccsc1)C2 | - | -7.166%
CCc1nc2ccccc2c(=O)n1CC1(O)CCN(C(=O)C(C)C)CC1 | 10.94% | 1.738%
O=C1NCCN(C(=O)c2cn3ccsc3n2)C1Cc1ccccc1 (stereo not shown) | 5.575% | 33.15%
Cc1nc(CN(C)Cc2cnc(N3CCOCC3)s2)no1 | 5.483% | -11.82%
O=C(CN1CCOC(Cn2cccn2)C1)Nc1nccs1 (stereo not shown) | 13.65% | 1.888%
NC(=O)N1CCCC(C(=O)NCc2noc(Cc3ccccc3)n2)C1 (stereo not shown) | 9.278% | 15.17%
CN(Cc1ccccn1)C(=O)c1nc(S(C)(=O)=O)n2ccccc12 | 20.2% | 5.87%
Cc1ncsc1C(=O)N(C)Cc1ccccc1 | 10.38% | 6.239%
CCc1ccc(C(NCC(N)=O)C(C)(C)C)o1 (stereo not shown) | 12.09% | -13.47%
CCc1nc(CN2CCCN(C(=O)c3cnc[nH]3)CC2)cs1 | 11.75% | 30.64%
O=C(O)C(F)(F)F.O=C(O)C(F)(F)F.c1cncc(-c2ccc3c(c2)CCC32CCN(Cc3nccs3)CC2)c1 | - | 74.6%
Cn1cc(C2CCCN2C(=O)c2cn(-c3ccccc3)nn2)cn1 (stereo not shown) | 12.78% | -1.421%
Cc1cnn(C2CCCN(C(=O)c3ccc(OCC4CC4)nc3)C2)c1 (stereo not shown) | 14.21% | 21.32%
COc1cccc2[nH]cc(CCNC(=O)N3CCCC3CO)c12 (stereo not shown) | 10.29% | -7.568%
Cc1ccccc1C(=O)Nc1ccc(OC2CCN(C)CC2)cc1 | 14.05% | 2.618%
CCS(=O)(=O)CCCN1CCSCC1c1ccc(Cl)cc1 (stereo not shown) | 17.33% | 6.254%
Cc1ccccc1OCC(=O)N1CCOC2(CNCCOC2)C1 (stereo not shown) | 24.08% | -31.72%
CC(C)C[C@H](N)c1nnc(SCC(N)=O)o1 | 4.852% | -
CS(=O)(=O)NC1CCCN(Cc2ccccn2)C1 (stereo not shown) | 14.93% | 12.8%
CCn1nc(C)cc1C(=O)N1C[C@@H]2C[C@@H](c3nc(C)cs3)O[C@@H]2C1 | 12.64% | -
CC(C)Cc1cn(C2CCN(C(C)CC3CC3)CC2)nn1 (stereo not shown) | 12.71% | 5.821%
c1ccc(CO[C@@H]2CN(Cc3cccnc3)[C@@H]3COC[C@@H]32)nc1 | 14.99% | -
C/C(NC(=O)c1cccs1)=C1\C(=O)C[C@@H]2[C@H]1C2(C)C | 2.688% | -
[H][C@@]12CCCO[C@]1([H])[C@@H](N(C)Cc1cncnc1)CN2C(=O)COC | - | 4.535%
O=C(O)C(F)(F)F.[H][C@@]12OCCN(C(=O)COC)[C@@]1([H])CC[C@H]2OCc1cccnc1 | - | -5.136%
Cn1ccnc1CN1CC[C@H]2CO[C@H](CNc3ncccn3)[C@H]2C1 | 6.301% | -
CN1CCCCC1Cc1nc(Cc2cccc(F)c2)no1 (stereo not shown) | 12.33% | -6.18%

For reference, 8 entries once more:

{"structure": "Cc1ccccc1C(=O)Nc1ccc(OC2CCN(C)CC2)cc1", "A": 14.05, "B": 2.618}
{"structure": "O=c1[nH]cnc2[nH]c(N3CCCCC3)nc12", "A": 16.32, "B": 2.933}
{"structure": "CN(C)CCNC(=O)c1cnc2c(c1)nc(-c1ccccc1Cl)n2C", "A": 14.5, "B": 1.161}
{"structure": "O=C(O)C(F)(F)F.[H][C@@]12OCCN(C(=O)COC)[C@@]1([H])CC[C@H]2OCc1cccnc1", "B": -5.136}
{"structure": "Cn1cc(C2CCCN2C(=O)c2cn(-c3ccccc3)nn2)cn1", "stereo": "stereo not shown", "A": 12.78, "B": -1.421}
{"structure": "O=C(c1cnccn1)N1CCCC2(CCN(Cc3ccc(F)cc3)C2)C1", "stereo": "stereo not shown", "A": 11.64}
{"structure": "CCOCc1ccccc1NC(=O)NC1CCN(C2CCCC2)C1", "stereo": "stereo not shown", "A": 6.923, "B": -25.34}
{"structure": "CC(=O)N1CCC2(CC1)CN(C(=O)c1cccnc1)c1ccc(F)cc12", "A": 8.211}